Test results as given in patent publication US20030118604A1, “Antigenic structural peptide, antigenic and immunogenic compounds, and uses for detecting, preventing and treating an HCV infection” (Bio Merieux, priority 1997, published 2003).
Part of at least one peptide drawing is inferred or uncertain, most often the ends. Ends that are not written are not given here.

Test system: anti-nucleocapsid antibodies in sera obtained from people infected with HCV
Assay: ELISA test of peptide antigenicity with sera from people infected with HCV
Assay type: binding, human
Conditions: for optical density (OD) read at 492 nm: peptide coated at 10 μg/ml

## TNRRPQDVKFPGGGQIVGGVYLLPR [SEQ ID NO: 2]
Practically all the sera containing anti-nucleocapsid antibodies, OD generally much higher than control well
  reactivity with sera containing anti-nucleocapsid antibodies: reacts strongly
Serum 1+H661, dilution 1/100
  optical density (OD) read at 492 nm: 0.050
Serum 1+H662, dilution 1/100
  optical density (OD) read at 492 nm: 0.028
Serum 2+H654, dilution 1/100
  optical density (OD) read at 492 nm: 0.251
Serum 3+H1, dilution 1/100
  optical density (OD) read at 492 nm: 0.375
Serum 3+H3, dilution 1/100
  optical density (OD) read at 492 nm: 0.726
Serum 4+H8, dilution 1/1000
  optical density (OD) read at 492 nm: 0.097
Serum 4+H69, dilution 1/1000
  optical density (OD) read at 492 nm: 0.455
Serum 4+H666, dilution 1/1000
  optical density (OD) read at 492 nm: 0.330
Serum H662, type 1+, only slightly reactive toward the nucleocapsid
  reactivity with serum H662: does not react
Serum neg H4 (no anti-nucleocapsid antibodies), dilution 1/100
  optical density (OD) read at 492 nm: 0.042
Serum neg H647 (no anti-nucleocapsid antibodies), dilution 1/100
  optical density (OD) read at 492 nm: 0.026
The two sera called "neg"
  cross-reactivity with sera without anti-nucleocapsid antibodies: does not exhibit cross-reactivity
